Assay results from patent US12521371B2, “Modulators of alpha-synuclein” (KAINOS MEDICINE INC., priority 2017, dated 2026).
At least one read-out could not be matched to a standard name with certainty.

Target: T1, FAF1 (Homo sapiens, UniProt Q9UNN5)
T1 construct: expressed in transfected cells; host or cells: SH-SY6H (sic)
T1 sequence (Q9UNN5 1-650): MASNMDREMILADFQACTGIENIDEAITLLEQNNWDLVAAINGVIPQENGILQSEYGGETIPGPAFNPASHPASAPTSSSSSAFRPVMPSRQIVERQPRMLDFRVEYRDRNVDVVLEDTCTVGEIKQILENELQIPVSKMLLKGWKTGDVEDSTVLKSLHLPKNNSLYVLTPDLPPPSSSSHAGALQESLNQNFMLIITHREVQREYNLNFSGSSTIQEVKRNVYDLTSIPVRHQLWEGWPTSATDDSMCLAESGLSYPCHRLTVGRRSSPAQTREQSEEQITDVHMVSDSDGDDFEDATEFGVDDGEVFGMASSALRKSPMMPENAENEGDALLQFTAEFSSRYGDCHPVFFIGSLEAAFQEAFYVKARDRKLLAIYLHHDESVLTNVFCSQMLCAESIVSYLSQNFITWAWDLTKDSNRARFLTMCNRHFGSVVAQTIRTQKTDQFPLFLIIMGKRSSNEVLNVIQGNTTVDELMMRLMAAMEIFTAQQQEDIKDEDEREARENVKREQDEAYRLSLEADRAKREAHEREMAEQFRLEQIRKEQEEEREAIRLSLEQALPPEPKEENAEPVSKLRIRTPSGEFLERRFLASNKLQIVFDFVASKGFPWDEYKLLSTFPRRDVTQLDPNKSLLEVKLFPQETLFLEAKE
Assay: Pulldown of Flag-tagged FAF1 with biotin-labeled KM-819 and avidin-coated agarose, Western blot
Type: binding
Conditions: cell extracts, cells stressed by hydrogen peroxide

Compound: O=C(CSc1ccc(Br)cc1)Nc1cn(CCc2ccccc2)nc1C(=O)O [KM-819, 4-[2-(4-bromo-phenylsulfanyl)-acetylamino]-1-phenethyl-1H-pyrazole-3-carboxylic acid]
- KM-819 binding to FAF1: binds
